Assay results taken from PubChem BioAssay AID504444 (National Center for Advancing Translational Sciences (NCATS), 2011).
About 7,500 (2.1%) of roughly 360,000 compounds were called active. The inconclusive results got no clear call from the source; some entries with a clear call stand among them for comparison. Calls follow the shape of the dose curve; as a rule, active = well fitted inhibition curve with a large enough effect; inconclusive = small, poorly fitted or top-dose-only effect, or effect the other way; inactive = flat fitted curve, though single readings scatter. Where the call is inconclusive, the potency comes from a doubtful curve fit.

Assay: Nrf2 qHTS screen for inhibitors; also: nearly all actives have a fitted effect of over 60% in size
Conditions: A549 ARE-Fluc reporter, luciferase luminescence, 18-24 h; series mostly up to 46 µM
Method in brief: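 Quantitative HTS in A549 cells stably bearing an antioxidant response element-firefly luciferase construct. Inhibition of Nrf2-driven transcription was scored by luminescence after 18-24 h of compound exposure at 37 °C.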
Potency is read from the fitted curve at half-maximal effect.

Structure (SMILES) | Potency
CN(C)c1cc[n+](CC(=O)Nc2ccc(Cl)c([N+](=O)[O-])c2)cc1 | active: 4.61 µM
O=c1oc2ccc3ccccc3c2cc1-c1nnc(Nc2ccc(Cl)cc2Cl)s1 | inactive
N#CC1=C(N)Oc2cc(O)ccc2C1c1ccc(Br)s1 (stereo unspecified) | inconclusive: 23.1 µM [falling, single point]
COc1cc(NC(=O)c2cnc(N)o2)cc(C(=O)Nc2cccc(C(F)(F)F)c2)c1 | inconclusive: 29.1 µM [falling, single point]
Cc1c(O)c2c3c(cccc3c1O)C(=O)N(c1ccccc1)C2=O | inconclusive: 25.9 µM [falling, single point]
Cc1cccc(NC(=O)C2CCCN(S(=O)(=O)c3c(C)[nH]c(=O)[nH]c3=O)C2)c1C (stereo unspecified) | inactive
O=C1Cc2cc(S(=O)(=O)N3CCN(c4ccc([N+](=O)[O-])cc4)CC3)ccc2N1 | inactive
COc1ccc(-c2nc3ccccc3o2)cc1NC(=O)C(C)(C)Oc1ccc(Br)cc1 | inactive
Cc1ccc(N2C(=O)C(Cl)=C(N3CCCCCC3)C2=O)cc1 | inconclusive: 20.6 µM [activator, single point]
O=C(Cc1ccccc1)Nc1ccc(NC(=O)c2cccs2)cc1 | inconclusive: 32.6 µM [falling, single point]
Cc1ccc(NC(=O)Nc2ccc(Cl)c(Cl)c2)nc1 | inconclusive: 1.64 µM [activator, full curve]
Cc1nnc(SCC(=O)Nn2cnnc2)s1 | inconclusive: 32.6 µM [activator, partial curve, poor fit]
O=C(Nc1nc2c(s1)CCCC2)c1ccc(Br)o1 | inconclusive: 4.11 µM [activator, full curve]
COc1cccc(NC(=O)c2ccc3c(c2)N(C)CCS3)c1 | inconclusive: 1.84 µM [activator, full curve]
COc1ccccc1NC(=O)Cn1nnc(-c2ccccc2NC(=O)c2cccs2)n1 | inconclusive: 32.6 µM [falling, single point]
NS(=O)(=O)c1ccc(CCN2C(=O)/C(=C\c3ccc(Cl)cc3)SC2=S)cc1 | inconclusive: 29.1 µM [falling, single point]
COCC(=O)Nc1ccc2c(c1)OCC(=O)N2Cc1ccccc1F | inconclusive: 4.11 µM [activator, partial curve]
Cc1cc(C)c(S(=O)(=O)N2CCN(C(=O)CN3C(=O)NC4(CCCC4)C3=O)CC2)c(C)c1 | inactive
Cc1ncc(CO)c2c1Oc1nc(-c3ccccc3)nc(SCC(=O)N3CCCCC3)c1C2 | inconclusive: 16.4 µM [activator, partial curve, poor fit]
CCN(CC)S(=O)(=O)c1ccc2c(c1)nc(-c1ccccn1)n2C | inconclusive: 5.17 µM [activator, partial curve]
CCOC(=O)C1CCCN(C(=O)c2ccc(S(=O)(=O)N3CCCC3)cc2)C1 (stereo unspecified) | inactive
CS(=O)(=O)N1CCc2cc(C(=O)Nc3ccc(Cl)c(C(F)(F)F)c3)ccc21 | active: 20.6 µM

Rewritten tab-delimited: 5 of the compounds above.
Structure (SMILES)	Potency
N#CC1=C(N)Oc2cc(O)ccc2C1c1ccc(Br)s1 (stereo unspecified)	inconclusive: 23.1 µM [falling, single point]
COc1cc(NC(=O)c2cnc(N)o2)cc(C(=O)Nc2cccc(C(F)(F)F)c2)c1	inconclusive: 29.1 µM [falling, single point]
Cc1c(O)c2c3c(cccc3c1O)C(=O)N(c1ccccc1)C2=O	inconclusive: 25.9 µM [falling, single point]
Cc1cccc(NC(=O)C2CCCN(S(=O)(=O)c3c(C)[nH]c(=O)[nH]c3=O)C2)c1C (stereo unspecified)	inactive
O=C1Cc2cc(S(=O)(=O)N3CCN(c4ccc([N+](=O)[O-])cc4)CC3)ccc2N1	inactive

Following part

Structure (SMILES) | Potency
O=[N+]([O-])c1cccnc1NCCNc1ncc(C(F)(F)F)cc1Cl | inconclusive: 8.2 µM [activator, single point]
Cc1ccc(NC(=O)c2cn3c4c(ccc(Cl)c4c2=O)OC(C)C3)cc1C (stereo unspecified) | inconclusive: 8.2 µM [activator, partial curve, poor fit]
Cn1c(=O)c2c(nc(N/N=C/c3cccnc3)n2Cc2ccccc2)n(C)c1=O | inconclusive: 29.1 µM [activator, single point]
COc1ccc(CN(CC(=O)NCc2ccccc2)C(=O)CCC(=O)Nc2cc(C)ccn2)cc1 | inactive
CS(=O)(=O)Nc1ccc(C2=NN(S(=O)(=O)c3ccc(F)cc3)C(c3ccco3)C2)cc1 (stereo unspecified) | inconclusive: 11.6 µM [falling, partial curve, poor fit]
O=C(Cn1c(=O)n(CC(=O)NCc2ccccc2)c2ccccc21)NCc1ccccc1 | inconclusive: 29.1 µM [falling, partial curve, poor fit]
O=C(COc1ccc([N+](=O)[O-])cc1)Nc1ccc2c(c1)nc1n2CCOC1 | inconclusive: 7.31 µM [falling, single point]
O=c1oc2ccccc2n1CCCOc1ccccc1Cl | inconclusive: 11.6 µM [activator, partial curve]
CCOc1ccc(NC(=O)c2ccc(NC(=O)c3ccccc3Br)cc2)cc1 | inconclusive: 6.51 µM [falling, partial curve, poor fit]
O=C(CN1C(=O)CCC1=O)Nc1nc(-c2nc3ccccc3s2)cs1 | inconclusive: 13 µM [activator, partial curve, poor fit]
COc1cccc(N2CCN(C(=O)CCS(=O)(=O)c3ccc4c(c3)CC(=O)N4C)CC2)c1 | inconclusive: 0.164 µM [activator, partial curve, poor fit]
COc1ccc(NC(C)C(=O)Nc2cccc(S(=O)(=O)N3CCOCC3)c2)cc1OC (stereo unspecified) | active: 6.51 µM
CCOc1c(Br)cc(CNc2ccc(N3CCN(C(C)=O)CC3)cc2)cc1OC | inconclusive: 18.4 µM [falling, single point]
Cc1cc(C(=O)CSc2nc(N)cc(=O)[nH]2)c(C)n1-c1cccc(F)c1 | inconclusive: 29.1 µM [falling, single point]
COC(=O)C(=Cc1ccc(OCc2ccc([N+](=O)[O-])cc2)c(OC)c1)C(=O)OC | inconclusive: 29.1 µM [falling, single point]
COc1ccccc1NC(=O)Cn1cnc2sc(C(=O)Nc3ccc(OC)c(OC)c3)c(C)c2c1=O | inconclusive: 23.1 µM [falling, single point]
CC1CC(C(F)(F)F)n2nc(C(=O)O)cc2N1 (stereo unspecified) | inconclusive: 16.4 µM [activator, partial curve, poor fit]
CN(Nc1cccc(Cl)c1)c1cccc(Cl)c1 | inconclusive: 16.4 µM [activator, partial curve]
C(#Cc1ccccc1)C[N+]1(CC#Cc2ccccc2)CCCC1 | inconclusive: 23.1 µM [falling, partial curve, poor fit]
COc1ccc(Cl)cc1NC(=O)C(C)N1CCc2ccccc21 (stereo unspecified) | inconclusive: 29.1 µM [falling, single point]
CC1(C)CC2CC(C)(CN2C(=O)COC(=O)c2ccc(Cl)cc2N)C1 (stereo unspecified) | inactive
O=C(Nc1cccc(S(=O)(=O)N2CCCC2)c1)c1ccncc1 | inconclusive: 16.4 µM [falling, partial curve, poor fit]

Structure (SMILES) | Potency
CCOC(=O)c1cn(Cc2ccccc2)c(C(=O)OC(C)(C)C)c1O | inconclusive: 29.1 µM [falling, single point]
CCN1CCC(N(Cc2cccc(OC)c2)C(=O)Nc2cccc(C)c2C)CC1 | inactive
O=C(NCc1ccc(Cl)cc1)c1cc2ccccc2oc1=O | inactive
Cc1csc(NC(=O)CSc2ncnc3c2cnn3-c2ccccc2Cl)n1 | inconclusive: 29.1 µM [falling, single point]
OCCN1CCN(c2nc(NCc3ccco3)c3ccccc3n2)CC1 | inactive
CCOC(=O)c1cccc(NC(=O)c2cc3cc4cc(OC)ccc4nc3s2)c1 | active: 23.1 µM
Cc1cccc(Nc2nc3ccccc3s2)c1C | inconclusive: 13 µM [activator, partial curve]
O=C(COCc1cc(-c2cccs2)on1)Nc1cc(Cl)ccc1O | inactive
Cn1c(=O)[nH]c(=O)c2c1nc(Br)n2CCCCSc1nc2ccccc2o1 | inconclusive: 23.1 µM [falling, single point]
COc1cc(NC(=O)c2ccccc2)c(OC)cc1NC(=O)CSc1[nH]c(=O)cc(C)c1C#N | inconclusive: 29.1 µM [activator, single point]
CC(C)(C)[C@@H]1C=C(C(=O)NCc2ccccc2)O[C@H](OCc2ccc(CO)cc2)C1 | inconclusive: 25.9 µM [falling, partial curve, poor fit]
Cc1ccccc1CSc1nnc(NC(=O)C2COc3ccccc3O2)s1 (stereo unspecified) | inconclusive: 25.9 µM [falling, partial curve, poor fit]
CCC(C)N(C(=O)CSc1nnc(C)n1C)C1CCS(=O)(=O)C1 (stereo unspecified) | inactive
COc1ccc(CC2c3cc(OC)c(OC)cc3CC[N+]2(C)CCC(=O)OCCCCCOC(=O)CC[N+]2(C)CCc3cc(OC)c(OC)cc3C2Cc2ccc(OC)c(OC)c2)cc1OC (stereo unspecified) | inactive
COc1ccc(NCc2ccccc2[N+](=O)[O-])cc1OC | inconclusive: 6.51 µM [falling, single point]
Cc1ccc(C(=O)NC2CCCCNC2=O)cc1C (stereo unspecified) | inconclusive: 2.59 µM [activator, partial curve]
COc1ccccc1NC(=O)c1c(C)cc(C)nc1SCC(=O)Nc1ccc(C)cc1 | inconclusive: 25.9 µM [falling, single point]
O=C(/C=C/c1cnc2ccccc2n1)NC12CC3CC(CC(C3)C1)C2 | inconclusive: 10.3 µM [activator, partial curve]
CC(C)C[C@@H](C(=O)NCC1CCCO1)N1C(=O)N2CCc3c([nH]c4ccccc34)[C@@]2(C)C1=O (stereo partly specified) | inactive
c1ccc(CCSc2nccn2-c2ccccc2)cc1 | inconclusive: 9.2 µM [activator, partial curve]
CC(=O)Nc1ccc(S(=O)(=O)NCC2CCC(C(=O)NCc3ccccc3)CC2)cc1 (stereo unspecified) | inconclusive: 32.6 µM [falling, single point]
Cc1ccc2[nH]c3c(NCc4ccccc4)ncnc3c2c1 | active: 5.17 µM
